No constants are given. Whether binding was seen depends on the method and setting. Binding seen in cells or lysates may run through a third protein. These calls come from enrichment with a bait or labelling near it, and not all partners need be listed.
Tests used:
Test in all cases: affinity purification with mass spectrometry; same immunoprecipitations from ASB-14 placental membrane extracts; eluates run on 4-12% Bis-Tris gels, strips from 25-220 kDa digested with Trypsin/Lys-C, LC-MS/MS, MaxQuant, 1% FDR
[1] = target: Vascular endothelial growth factor receptor 2 (human (endogenous in placenta)) (UniProt P35968)
[2] = target: T1, Double minute 4 protein (human (endogenous in placenta)) (UniProt O15151)
T1 sequence: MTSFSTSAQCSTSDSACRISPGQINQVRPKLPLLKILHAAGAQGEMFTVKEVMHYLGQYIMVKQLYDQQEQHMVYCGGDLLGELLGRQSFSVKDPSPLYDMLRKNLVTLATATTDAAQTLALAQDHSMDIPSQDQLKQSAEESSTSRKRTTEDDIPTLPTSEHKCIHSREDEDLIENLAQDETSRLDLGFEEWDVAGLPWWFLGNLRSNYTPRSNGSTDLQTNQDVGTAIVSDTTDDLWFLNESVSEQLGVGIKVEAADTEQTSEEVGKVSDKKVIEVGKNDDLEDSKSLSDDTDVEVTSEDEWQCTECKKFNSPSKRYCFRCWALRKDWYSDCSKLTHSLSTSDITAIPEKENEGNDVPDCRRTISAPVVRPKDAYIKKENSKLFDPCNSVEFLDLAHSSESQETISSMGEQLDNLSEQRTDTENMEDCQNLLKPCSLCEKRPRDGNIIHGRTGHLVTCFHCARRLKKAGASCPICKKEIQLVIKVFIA

Amino acid sequences for entries named in this document (tags omitted). Residues count along the entry.
UniProt P35968, residues 20-1356: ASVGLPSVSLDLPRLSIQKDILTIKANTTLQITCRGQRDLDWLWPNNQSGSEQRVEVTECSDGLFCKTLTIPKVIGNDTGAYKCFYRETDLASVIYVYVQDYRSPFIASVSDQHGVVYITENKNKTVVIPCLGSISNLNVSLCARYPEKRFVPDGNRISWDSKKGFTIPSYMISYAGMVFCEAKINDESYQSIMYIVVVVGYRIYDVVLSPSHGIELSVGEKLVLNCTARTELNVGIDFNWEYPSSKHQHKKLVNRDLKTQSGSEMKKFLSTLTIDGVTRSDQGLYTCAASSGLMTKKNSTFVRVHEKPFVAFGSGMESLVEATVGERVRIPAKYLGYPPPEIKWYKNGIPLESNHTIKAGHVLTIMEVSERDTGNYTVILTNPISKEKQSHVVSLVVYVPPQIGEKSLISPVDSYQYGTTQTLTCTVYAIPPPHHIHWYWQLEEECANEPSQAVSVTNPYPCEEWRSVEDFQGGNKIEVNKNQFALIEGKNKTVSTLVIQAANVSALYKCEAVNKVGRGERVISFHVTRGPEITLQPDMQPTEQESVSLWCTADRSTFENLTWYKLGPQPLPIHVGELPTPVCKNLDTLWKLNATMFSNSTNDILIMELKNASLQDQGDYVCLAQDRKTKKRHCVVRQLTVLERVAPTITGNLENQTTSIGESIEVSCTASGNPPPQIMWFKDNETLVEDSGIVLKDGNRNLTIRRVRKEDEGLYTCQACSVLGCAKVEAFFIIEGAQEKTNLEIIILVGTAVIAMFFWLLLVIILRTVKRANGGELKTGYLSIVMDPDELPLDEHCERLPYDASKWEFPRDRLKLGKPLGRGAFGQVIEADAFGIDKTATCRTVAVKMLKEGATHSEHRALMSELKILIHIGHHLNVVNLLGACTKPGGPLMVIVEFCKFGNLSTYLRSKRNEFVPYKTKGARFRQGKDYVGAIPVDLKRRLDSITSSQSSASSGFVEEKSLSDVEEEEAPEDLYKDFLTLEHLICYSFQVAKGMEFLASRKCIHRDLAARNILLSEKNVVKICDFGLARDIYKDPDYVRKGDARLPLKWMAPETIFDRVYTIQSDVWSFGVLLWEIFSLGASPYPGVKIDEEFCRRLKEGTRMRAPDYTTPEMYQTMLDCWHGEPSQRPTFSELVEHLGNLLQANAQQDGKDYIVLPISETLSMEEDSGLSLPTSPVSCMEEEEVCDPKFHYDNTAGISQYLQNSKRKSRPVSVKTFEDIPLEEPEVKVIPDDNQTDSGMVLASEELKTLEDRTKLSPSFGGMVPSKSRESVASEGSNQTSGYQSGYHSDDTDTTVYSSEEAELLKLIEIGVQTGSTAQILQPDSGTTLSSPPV

[3] = target: T2, Phosphatidylinositol-binding clathrin assembly protein (human (endogenous in placenta)) (UniProt Q13492)
T2 sequence: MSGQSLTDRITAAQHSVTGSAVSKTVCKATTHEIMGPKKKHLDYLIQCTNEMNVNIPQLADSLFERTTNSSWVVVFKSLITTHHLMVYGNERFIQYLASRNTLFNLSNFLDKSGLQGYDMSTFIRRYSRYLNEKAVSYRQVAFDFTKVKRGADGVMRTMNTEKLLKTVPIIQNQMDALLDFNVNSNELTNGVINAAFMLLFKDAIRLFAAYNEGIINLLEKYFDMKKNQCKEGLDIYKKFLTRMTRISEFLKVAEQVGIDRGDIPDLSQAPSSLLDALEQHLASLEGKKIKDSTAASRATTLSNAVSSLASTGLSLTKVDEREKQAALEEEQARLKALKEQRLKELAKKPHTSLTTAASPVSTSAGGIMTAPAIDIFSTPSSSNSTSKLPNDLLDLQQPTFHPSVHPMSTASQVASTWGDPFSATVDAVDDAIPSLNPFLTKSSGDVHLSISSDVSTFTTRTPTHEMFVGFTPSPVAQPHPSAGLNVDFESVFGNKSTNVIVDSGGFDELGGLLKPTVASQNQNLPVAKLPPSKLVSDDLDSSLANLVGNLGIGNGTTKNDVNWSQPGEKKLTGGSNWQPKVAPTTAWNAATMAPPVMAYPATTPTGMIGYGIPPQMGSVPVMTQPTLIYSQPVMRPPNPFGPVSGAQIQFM

Immunoglobulin heavy constant alpha 1 (from UniProt P01876-1)
binding [1]: binds

B1: PDC-E2, the E2 component of pyruvate dehydrogenase (enzyme, UniProt P10515 87-647)
chain: SLPPHQKVPLPSLSPTMQAGTIARWEKKEGDKINEGDLIAEVETDKATVGFESLEECYMAKILVAEGTRDVPIGAIICITVGKPEDIEAFKNYTLDSSAAPTPQAAPAPTPAATASPPTPSAQAPGSSYPPHMQVLLPALSPTMTMGTVQRWEKKVGEKLSEGDLLAEIETDKATIGFEVQEEGYLAKILVPEGTRDVPLGTPLCIIVEKEADISAFADYRPTEVTDLKPQVPPPTPPPVAAVPPTPQPLAPTPSAPCPATPAGPKGRVFVSPLAKKLAVEKGIDLTQVKGTGPDGRITKKDIDSFVPSKVAPAPAAVVPPTGPGMAPVPTGVFTDIPISNIRRVIAQRLMQSKQTIPHYYLSIDVNMGEVLLVRKELNKILEGRSKISVNDFIIKASALACLKVPEANSSWMDTVIRQNHVVDVSVAVSTPAGLITPIVFNAHIKGVETIANDVVSLATKAREGKLQPHEFQGGTFTISNLGMFGIKNFSAIINPPQACILAIGASEDKLVPADNEKGFDVASMMSVTLSCDHRVVDGAVGAQWLAEFRKYLEKPITMLL
binding [1]: binds

B2: Phosphatidylinositol-binding clathrin assembly protein (protein, UniProt Q13492 1-652)
chain: MSGQSLTDRITAAQHSVTGSAVSKTVCKATTHEIMGPKKKHLDYLIQCTNEMNVNIPQLADSLFERTTNSSWVVVFKSLITTHHLMVYGNERFIQYLASRNTLFNLSNFLDKSGLQGYDMSTFIRRYSRYLNEKAVSYRQVAFDFTKVKRGADGVMRTMNTEKLLKTVPIIQNQMDALLDFNVNSNELTNGVINAAFMLLFKDAIRLFAAYNEGIINLLEKYFDMKKNQCKEGLDIYKKFLTRMTRISEFLKVAEQVGIDRGDIPDLSQAPSSLLDALEQHLASLEGKKIKDSTAASRATTLSNAVSSLASTGLSLTKVDEREKQAALEEEQARLKALKEQRLKELAKKPHTSLTTAASPVSTSAGGIMTAPAIDIFSTPSSSNSTSKLPNDLLDLQQPTFHPSVHPMSTASQVASTWGDPFSATVDAVDDAIPSLNPFLTKSSGDVHLSISSDVSTFTTRTPTHEMFVGFTPSPVAQPHPSAGLNVDFESVFGNKSTNVIVDSGGFDELGGLLKPTVASQNQNLPVAKLPPSKLVSDDLDSSLANLVGNLGIGNGTTKNDVNWSQPGEKKLTGGSNWQPKVAPTTAWNAATMAPPVMAYPATTPTGMIGYGIPPQMGSVPVMTQPTLIYSQPVMRPPNPFGPVSGAQIQFM
binding [2]: binds

B3: arginase-1 (enzyme, UniProt P05089 1-322)
chain: MSAKSRTIGIIGAPFSKGQPRGGVEEGPTVLRKAGLLEKLKEQECDVKDYGDLPFADIPNDSPFQIVKNPRSVGKASEQLAGKVAEVKKNGRISLVLGGDHSLAIGSISGHARVHPDLGVIWVDAHTDINTPLTTTSGNLHGQPVSFLLKELKGKIPDVPGFSWVTPCISAKDIVYIGLRDVDPGEHYILKTLGIKYFSMTEVDRLGIGKVMEETLSYLLGRKKRPIHLSFDVDGLDPSFTPATGTPVVGGLTYREGLYITEEIYKTGLLSGLDIMEVNPSLGKTPEEVTRTVNTAVAITLACFGLAREGNHKPIDYLNPPK
binding [2]: binds

B4: Protein-glutamine gamma-glutamyltransferase 2 (enzyme, UniProt P21980 1-687)
chain: MAEELVLERCDLELETNGRDHHTADLCREKLVVRRGQPFWLTLHFEGRNYEASVDSLTFSVVTGPAPSQEAGTKARFPLRDAVEEGDWTATVVDQQDCTLSLQLTTPANAPIGLYRLSLEASTGYQGSSFVLGHFILLFNAWCPADAVYLDSEEERQEYVLTQQGFIYQGSAKFIKNIPWNFGQFEDGILDICLILLDVNPKFLKNAGRDCSRRSSPVYVGRVVSGMVNCNDDQGVLLGRWDNNYGDGVSPMSWIGSVDILRRWKNHGCQRVKYGQCWVFAAVACTVLRCLGIPTRVVTNYNSAHDQNSNLLIEYFRNEFGEIQGDKSEMIWNFHCWVESWMTRPDLQPGYEGWQALDPTPQEKSEGTYCCGPVPVRAIKEGDLSTKYDAPFVFAEVNADVVDWIQQDDGSVHKSINRSLIVGLKISTKSVGRDEREDITHTYKYPEGSSEEREAFTRANHLNKLAEKEETGMAMRIRVGQSMNMGSDFDVFAHITNNTAEEYVCRLLLCARTVSYNGILGPECGTKYLLNLNLEPFSEKSVPLCILYEKYRDCLTESNLIKVRALLVEPVINSYLLAERDLYLENPEIKIRILGEPKQKRKLVAEVSLQNPLPVALEGCTFTVEGAGLTEEQKTVEIPDPVEAGEEVKVRMDLLPLHMGLHKLVVNFESDKLKAVKGFRNVIIGPA
binding [2]: binds | binding [3]: binds

From article PMC11003095
